According to paper PMC7672476, “Structural basis of Mfd-dependent transcription termination” (Nucleic Acids Research, 2020):
Residue numbers refer to the chain shown, from its start. Construct, isoform or probe ends are uncertain for at least one entry. For some assays here: Weaker means in comparison with the reference protein, sequence or condition of that experiment. Where a protein sequence is shown, tags need not be part of it. For some assays here: At least one verdict was read from the data and is not stated in words by the source.

Experiments:
[1] = biological target: T1, Mfd K739A (Escherichia coli) (UniProt P30958); experiment: fluorescence polarization; settings: 2 mM ATPgS, 5 mM Mg2+; FP: 10 mM HEPES pH 7.5, 50 mM KCl, 5 mM MgCl2, 2 mM ATPgS, 0.1 uM DNA, 0-16 uM Mfd, 10 min at 25 C; recombinant protein; protein details: N-His6; label: 5' 6-FAM on strand 1
T1 sequence (looked up, limits assumed): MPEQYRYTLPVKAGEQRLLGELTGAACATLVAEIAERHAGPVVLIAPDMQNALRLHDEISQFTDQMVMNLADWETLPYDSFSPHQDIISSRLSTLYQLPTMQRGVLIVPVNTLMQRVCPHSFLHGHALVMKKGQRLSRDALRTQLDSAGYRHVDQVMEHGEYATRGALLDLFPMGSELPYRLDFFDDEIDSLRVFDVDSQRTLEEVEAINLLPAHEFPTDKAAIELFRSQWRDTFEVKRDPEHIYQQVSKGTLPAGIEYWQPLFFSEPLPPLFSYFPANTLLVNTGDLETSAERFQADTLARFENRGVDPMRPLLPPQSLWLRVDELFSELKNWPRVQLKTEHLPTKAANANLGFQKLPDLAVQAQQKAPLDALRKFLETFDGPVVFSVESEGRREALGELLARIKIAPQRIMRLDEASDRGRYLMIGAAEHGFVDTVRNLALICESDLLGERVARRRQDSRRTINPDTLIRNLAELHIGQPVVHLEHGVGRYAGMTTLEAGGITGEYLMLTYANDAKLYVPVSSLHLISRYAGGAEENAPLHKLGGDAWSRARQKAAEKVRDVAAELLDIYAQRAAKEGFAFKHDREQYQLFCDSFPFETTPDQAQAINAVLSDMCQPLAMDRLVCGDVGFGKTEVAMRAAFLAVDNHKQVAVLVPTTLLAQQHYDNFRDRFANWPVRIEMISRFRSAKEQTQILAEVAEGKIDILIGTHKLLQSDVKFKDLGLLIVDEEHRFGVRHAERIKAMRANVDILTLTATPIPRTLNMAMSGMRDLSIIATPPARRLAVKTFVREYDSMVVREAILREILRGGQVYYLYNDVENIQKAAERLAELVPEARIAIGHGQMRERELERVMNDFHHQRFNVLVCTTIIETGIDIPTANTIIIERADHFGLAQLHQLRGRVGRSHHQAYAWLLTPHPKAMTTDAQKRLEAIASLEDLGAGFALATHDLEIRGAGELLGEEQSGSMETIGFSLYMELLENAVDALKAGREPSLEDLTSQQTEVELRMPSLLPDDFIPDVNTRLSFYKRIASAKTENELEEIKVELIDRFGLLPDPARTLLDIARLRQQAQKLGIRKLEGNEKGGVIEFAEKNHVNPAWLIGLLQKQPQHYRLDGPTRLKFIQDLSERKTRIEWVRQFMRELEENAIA

Mfd (Escherichia coli) = biological target: T2, Mfd (Escherichia coli) (UniProt P30958); experiment: fluorescence polarization; settings: 2 mM ATPgS, 5 mM Mg2+; FP: 10 mM HEPES pH 7.5, 50 mM KCl, 5 mM MgCl2, 2 mM ATPgS, 0.1 uM DNA, 0-16 uM Mfd, 10 min at 25 C; recombinant protein; protein details: N-His6; label: 5' 6-FAM on strand 1
T2 sequence (looked up, limits assumed): T1 sequence (looked up, limits assumed) with A739K

AGCAAAGCTTCTTT (double strand) [6-FAM 14 bp DNA]
binding result [1]: binds more weakly
binding result (Mfd (Escherichia coli)): binds
